# From PubChem BioAssay AID504444 (National Center for Advancing Translational Sciences (NCATS), 2011)
# The whole screen tested about 360,000 compounds, of which about 7,500 (2.1%) were called active. The shares of active, inactive and inconclusive entries below differ from those in the screen. Calls come from the whole dose curve; as a rule, active = well fitted inhibition curve with a large enough effect; inconclusive = small, poorly fitted or top-dose-only effect, or effect the other way; inactive = flat fitted curve, though single readings scatter. Where the call is inconclusive, the potency comes from a doubtful curve fit.
# Assay: Nrf2 qHTS screen for inhibitors; note: nearly all actives have a fitted effect of over 60% in size
# Conditions: A549 ARE-Fluc reporter, luciferase luminescence, 18-24 h; series mostly up to 46 µM
# Method in brief: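 Cells were seeded and rested 2 h, then exposed to compounds for 18-24 h. CellTiter-Fluor was read first as a viability measure. BugLite was added 15 min before the final luminescent read of ARE-luciferase activity in A549 cells.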
# Potency is the fitted concentration of half-maximal effect.
row,SMILES,Potency
1,CCN(CC)P(=O)(/C(Cl)=C\Nc1c(C)n(C)n(-c2ccccc2)c1=O)N(CC)CC,"inconclusive: 9.2 µM [activator, partial curve]"
2,CC(=O)N1CCC2(CC1)CC(=O)c1cc(OCC(=O)N3CCCC3)ccc1O2,inactive
3,CCCOC1CCCN(C(=O)c2cc(COc3ccc(F)c(F)c3)on2)C1 (stereo not drawn),"inconclusive: 10.3 µM [activator, partial curve]"
4,Cc1ccc(C)c(N2CCN(C(=O)CN(C)S(=O)(=O)c3ccc4c(c3)CCC(=O)N4)CC2)c1,inactive
5,CCN(c1ccccc1)S(=O)(=O)c1ccc(N2CCN(c3ccc(O)cc3)CC2)nc1,"inconclusive: 20.6 µM [falling, single point]"
6,COc1ccc(NC(=O)c2sc3nc(C)nc(N4CCN(c5ccccn5)CC4)c3c2C)c(OC)c1,"inconclusive: 14.6 µM [falling, partial curve]"
7,Cc1nn(-c2ccccc2)c2sc(C(=O)Nc3cccc(O)c3)cc12,"inconclusive: 18.4 µM [falling, single point]"
8,O=C(O)CCCN1C(=O)/C(=C/c2ccc(-c3nc4ccccc4s3)o2)SC1=S,"inconclusive: 4.61 µM [falling, full curve, poor fit]"
9,COc1ccc(CNc2ccc(C(=O)O)cc2)cc1,"inconclusive: 1.64 µM [activator, full curve, poor fit]"
10,O=C(Nc1ccccc1)Nc1ccccc1,inactive
11,Cc1ccc(N(C(=O)c2ccccn2)C(C(=O)NC2CCCCC2)c2ccncc2)cc1 (stereo not drawn),"inconclusive: 32.6 µM [activator, single point]"
12,COc1ccc(CCNC(=O)CCCn2nc(C)c3sc4ccccc4c3c2=O)cc1OC,"inconclusive: 5.17 µM [falling, partial curve]"
13,CCOc1cccc(-c2nc3cc(C)ccc3o2)c1,"inconclusive: 8.2 µM [activator, partial curve]"
14,O=C(NNS(=O)(=O)c1ccc2ccccc2c1)c1cc(-c2ccccn2)nc2ccccc12,"inconclusive: 16.4 µM [falling, single point]"
15,CC1(C)Cc2nc3oc4c(NCCCN5CCOCC5)ncnc4c3cc2CO1,inactive
16,COc1ccccc1N1CCN(CCCCN2C(=O)C3CCCN3C2=O)CC1 (stereo not drawn),"inconclusive: 10.3 µM [activator, partial curve, poor fit]"
17,COc1cccc(-c2nc(CS(=O)(=O)CC(=O)NCCc3ccc(C)cc3)c(C)o2)c1,"inconclusive: 29.1 µM [falling, single point]"
18,COc1ccccc1N1CCN(C(=O)CN(C)S(=O)(=O)c2cc(C)ccc2OC)CC1,"inconclusive: 32.6 µM [falling, single point]"
19,Cc1cc(NC(=O)Cc2ccccc2)c2ccccc2n1,active: 9.2 µM
20,OCCNc1cnc2ccccc2n1,"inconclusive: 20.6 µM [activator, single point]"
21,Cc1noc(C)c1C(=O)OCC(=O)N(C)C1(C#N)CCCCC1,"inconclusive: 25.9 µM [activator, single point]"
22,CCN(c1ccccc1)S(=O)(=O)c1nnc(NC(=O)c2ccco2)s1,"inconclusive: 29.1 µM [activator, single point]"
23,Cc1ccccc1-c1nnc(SCC(=O)N2CCCCC2)o1,inactive

row,SMILES,Potency
1,OCCC1CN(Cc2cc3ccccc3o2)CCN1Cc1ccc(F)cc1 (stereo not drawn),inactive
2,COc1cccc(/C=C2\SC(=S)N(CCCC(=O)N3CCCCC3)C2=O)c1,"inconclusive: 29.1 µM [falling, single point]"
3,COc1cccc(C(=O)c2cc3ccc(O)cc3oc2=O)c1,"inconclusive: 6.51 µM [falling, single point]"
4,CCOC(=O)C1=C(CC)Nc2ccccc2N=C1NC(=O)c1cc(C)on1,inactive
5,Cc1oc(/C=N/NC(=O)CN(c2ccccc2Cl)S(C)(=O)=O)cc1Br,"inconclusive: 4.61 µM [activator, partial curve, poor fit]"
6,CCc1ccc2c(c1)NC(c1cccnc1)=NC(c1ccc(C(C)(C)C)cc1)=N2,"inconclusive: 32.6 µM [falling, single point]"
7,N#Cc1c(C(F)(F)F)cc(-c2cccs2)nc1SCc1cccnc1,active: 13 µM
8,O=C(CSc1nc(-c2cccs2)nc2cc(=O)[nH]n12)Nc1ccccc1Cl,"inconclusive: 25.9 µM [activator, partial curve, poor fit]"
9,Cc1nc2ccc(NS(=O)(=O)c3ccc(Br)cc3)cc2s1,active: 14.6 µM
10,COc1cc(C2CC(=O)Nc3c2c(C)nn3-c2nncc(-c3ccccc3)n2)cc(OC)c1OC (stereo not drawn),"inconclusive: 16.4 µM [falling, single point]"
11,O=C(NCCn1cc(SCc2ccccc2)c2ccccc21)c1ccccc1F,"inconclusive: 23.1 µM [falling, single point]"
12,O=C1NC(NS(=O)(=O)c2ccccc2)(C(F)(F)F)C(=O)N1c1cccc(Cl)c1 (stereo not drawn),inactive
13,CCC(CO)(CO)N(CC(=O)Nc1ccc(OC)cc1)CC(=O)Nc1ccc(OC)cc1,"inconclusive: 29.1 µM [falling, partial curve, poor fit]"
14,CC(C)C1N=C2c3ccccc3N=C(SCC#N)N2C1=O (stereo not drawn),inactive
15,CC(C)(C)C(=O)Nc1cccc(-c2cc(-c3c(Cl)cccc3Cl)no2)c1,"inconclusive: 20.6 µM [falling, partial curve, poor fit]"
16,CC(C)c1cc(C(=O)OCC(=O)NC(=O)NCc2ccco2)c(O)c(C(C)C)c1,"inconclusive: 16.4 µM [falling, single point]"
17,Fc1ccc(N2CCN(c3nc(CN4CCOCC4)nc4scc(-c5ccccc5)c34)CC2)cc1,"inconclusive: 23.1 µM [falling, single point]"
18,C/C(CC(=O)NCc1ccccc1Cl)=N/NC(=O)c1ccccn1,"inconclusive: 25.9 µM [activator, partial curve, poor fit]"
19,Cc1nc(N2CCN(Cc3ccc4c(c3)OCO4)CC2)c2cc(-c3ccccc3)sc2n1,"inconclusive: 11.6 µM [activator, partial curve]"
20,CCOC(=O)c1c(NCC(C)C)c2ccccc2[nH]c1=O,"inconclusive: 23.1 µM [falling, single point]"
21,Cc1ccc(-n2ncc3c2CC(C)(C)CC3NC(=O)CCc2cccnc2)cc1 (stereo not drawn),"inconclusive: 18.4 µM [falling, single point]"
22,Cc1ccc2nc(-c3ccc(Cl)c(NC(=O)c4ccc(Br)o4)c3)oc2c1,"inconclusive: 16.4 µM [activator, partial curve, poor fit]"
23,COCc1cc(=O)[nH]c(Nc2nc(C)c3ccccc3n2)n1,"inconclusive: 2.59 µM [falling, single point]"

# Quoted from the listing.
# For Potency, Cc1ccc2nc(-c3ccc(Cl)c(NC(=O)c4ccc(Br)o4)c3)oc2c1 has inconclusive: 16.4 µM [activator, partial curve, poor fit]
# For Potency, CC(C)C1N=C2c3ccccc3N=C(SCC#N)N2C1=O (stereo not drawn) has inactive
# For Potency, Fc1ccc(N2CCN(c3nc(CN4CCOCC4)nc4scc(-c5ccccc5)c34)CC2)cc1 has inconclusive: 23.1 µM [falling, single point]

# Next part:

row,SMILES,Potency
1,COC(=O)CC1C(=O)NCCN1C(=S)Nc1ccccc1Cl (stereo not drawn),"inconclusive: 32.6 µM [falling, single point]"
2,CC(=O)Nc1ccc(S(=O)(=O)N2CCN(CC3CC4C=CC3C4)CC2)cc1 (stereo not drawn),"inconclusive: 32.6 µM [falling, partial curve, poor fit]"
3,COc1ccc(S(=O)(=O)N2CCCC(C(=O)NCc3cccnc3)C2)cc1 (stereo not drawn),"inconclusive: 32.6 µM [falling, single point]"
4,O=C(Cn1c2ccccc2c(=O)c2ccccc21)Nc1ccccc1F,inactive
5,CSc1ccc(CCNC(=O)c2ccc(CS(=O)Cc3ccc(Cl)cc3)o2)cc1 (stereo not drawn),inactive
6,Cc1[nH]n(-c2ccccc2)c(=O)c1/C=N/NC(=O)c1cccc([N+](=O)[O-])c1,inactive
7,CC(=O)Nc1nnc(SCC(=O)N2CCCc3ccccc32)s1,"inconclusive: 13 µM [falling, partial curve, poor fit]"
8,CCC(=O)Nc1cc2c(cc1C(=O)CC)OCCO2,inactive
9,O=C1CCCC2=C1[C@@]1(CCC(c3ccccc3)C1)N=C(Nc1nc3ccccc3o1)N2 (stereo partly drawn),"inconclusive: 18.4 µM [falling, single point]"
10,c1ccc(CSc2ccc(-c3ccccn3)nn2)nc1,"inconclusive: 2.06 µM [activator, partial curve]"
11,CC(C)(C)NS(=O)(=O)c1ccc(NC(=S)NC(=O)C2CC2)cc1,"inconclusive: 16.4 µM [falling, single point]"
12,CNc1nn(-c2cccc(Cl)c2)nc1N,"inconclusive: 18.4 µM [activator, single point]"
13,CCCCc1nc2cc(C(=O)N3CCCCC3CCO)ccc2o1 (stereo not drawn),"inconclusive: 16.4 µM [activator, partial curve]"
14,Cc1ccc(C)c(N2CCN(C(=O)CCS(=O)(=O)c3ccc4c(c3)CCN4C(=O)C3CC3)CC2)c1,active: 25.9 µM
15,COC(=O)c1cc(OC)c(OC)cc1NC(=S)N1CCOCC1,inactive
16,COc1ccc2c(c1)c(C(=O)N/N=C/c1cn(C)c3ccccc13)c(C)n2C,"inconclusive: 20.6 µM [falling, partial curve, poor fit]"
17,O=C(Nc1cccc(Cl)c1)C1CCCN(C2=NS(=O)(=O)c3ccccc32)C1 (stereo not drawn),"inconclusive: 29.1 µM [falling, single point]"
18,CCOC(=O)N1CCN(c2ccc(S(=O)(=O)N3CCOCC3)cn2)CC1,"inconclusive: 0.0065 µM [falling, full curve, poor fit]"
19,COc1ccc(CN(C2CC2)S(=O)(=O)c2ccccc2Br)cc1,active: 16.4 µM
20,CCOCc1nnc(NC(=O)c2cc(Cl)ccc2OC)s1,inactive
21,CC1CCCCN1S(=O)(=O)c1ccc(C(=O)Nc2nnc(C3CC3)o2)cc1 (stereo not drawn),active: 13 µM
22,COc1ccc(-n2cnc3cc(NS(=O)(=O)c4ccccc4)ccc32)cc1,"inconclusive: 29.1 µM [falling, single point]"
